In article PMC5665528:
Where a chain is given by its changes, count along the chain named. Results are given in words; binding and its absence hold for the method and conditions named. In cells and extracts the contact can be indirect. Some entries that bind do so weakly or less than the wild type.

Chains of the proteins cited; added tags and fusions are not shown.
UniProt Q5F3K4: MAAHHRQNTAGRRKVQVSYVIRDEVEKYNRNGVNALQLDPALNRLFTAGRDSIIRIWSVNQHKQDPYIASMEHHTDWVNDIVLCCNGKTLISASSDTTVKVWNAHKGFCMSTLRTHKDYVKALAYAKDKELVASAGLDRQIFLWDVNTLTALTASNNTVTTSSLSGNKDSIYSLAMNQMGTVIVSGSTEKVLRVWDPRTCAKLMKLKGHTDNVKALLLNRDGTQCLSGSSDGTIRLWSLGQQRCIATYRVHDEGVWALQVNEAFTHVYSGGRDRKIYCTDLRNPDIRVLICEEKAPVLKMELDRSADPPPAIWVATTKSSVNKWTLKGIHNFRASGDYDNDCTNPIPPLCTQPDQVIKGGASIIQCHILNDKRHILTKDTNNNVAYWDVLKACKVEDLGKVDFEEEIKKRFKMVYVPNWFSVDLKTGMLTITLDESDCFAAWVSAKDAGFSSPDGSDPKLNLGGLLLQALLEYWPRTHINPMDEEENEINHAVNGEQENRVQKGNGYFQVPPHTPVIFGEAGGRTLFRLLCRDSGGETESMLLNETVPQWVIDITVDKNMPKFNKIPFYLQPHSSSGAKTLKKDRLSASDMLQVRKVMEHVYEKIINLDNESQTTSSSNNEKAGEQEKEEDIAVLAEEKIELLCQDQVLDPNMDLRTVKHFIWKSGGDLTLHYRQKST

Legend:
[1] = biological target: chicken ubiquitin-specific protease 1, chUSP1^GG680,681AA double mutant (full-length control) (chicken) (UniProt F1NPR3); assay: pull-down; purified hexa-His tagged chUSP1^FL bound to Ni-NTA resin as bait; Sf9 cell lysate with untagged chUAF1 as prey, 1 hour at 4°C in lysis buffer (50 mM Tris HCl pH 8.0, 10% glycerol, 500 mM NaCl, 10 mM imidazole); eluted with 300 mM imidazole; Western blot; only the target purified
[2] = biological target: T1, chUSP1^C91S (on chUSP1^FL) (chicken) (UniProt F1NPR3); assay: pull-down; N-terminally hexa-His tagged chUSP1 (bait, with or without catalytic core mutations) and untagged chUAF1 co-expressed in Sf9 cells (co-infection, MOI 1, 72 h); lysate on a Ni-NTA column (50 mM Tris HCl pH 8.0, 10% glycerol, 500 mM NaCl, imidazole gradient); Coomassie gel and Western blot
T1 sequence: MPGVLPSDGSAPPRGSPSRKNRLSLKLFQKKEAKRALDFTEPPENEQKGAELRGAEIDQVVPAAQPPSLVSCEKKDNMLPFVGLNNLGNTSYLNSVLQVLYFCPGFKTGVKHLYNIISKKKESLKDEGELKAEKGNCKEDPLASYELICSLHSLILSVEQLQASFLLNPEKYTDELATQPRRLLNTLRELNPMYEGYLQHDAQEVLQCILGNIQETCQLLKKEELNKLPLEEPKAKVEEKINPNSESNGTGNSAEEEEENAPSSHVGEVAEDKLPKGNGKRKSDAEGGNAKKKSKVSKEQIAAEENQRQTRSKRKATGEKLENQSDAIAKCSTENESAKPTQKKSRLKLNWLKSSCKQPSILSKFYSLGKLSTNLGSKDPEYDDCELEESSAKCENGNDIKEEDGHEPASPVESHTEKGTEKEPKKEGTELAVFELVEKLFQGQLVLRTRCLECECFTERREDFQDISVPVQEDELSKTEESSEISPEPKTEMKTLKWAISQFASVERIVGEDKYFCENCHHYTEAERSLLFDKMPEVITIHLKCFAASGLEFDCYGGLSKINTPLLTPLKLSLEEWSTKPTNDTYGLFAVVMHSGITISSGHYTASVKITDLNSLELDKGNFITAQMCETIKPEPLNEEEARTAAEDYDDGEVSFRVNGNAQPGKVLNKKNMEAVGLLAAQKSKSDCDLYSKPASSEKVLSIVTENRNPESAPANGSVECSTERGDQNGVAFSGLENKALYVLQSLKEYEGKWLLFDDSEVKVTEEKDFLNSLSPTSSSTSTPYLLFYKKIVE

[3] = biological target: T2, chUSP1^H603A (on chUSP1^FL) (chicken) (UniProt F1NPR3); assay: as above
T2 sequence: T1 sequence with S91C, H603A

[4] = biological target: T3, chUSP1^D758A (on chUSP1^FL) (chicken) (UniProt F1NPR3); assay: as above
T3 sequence: T1 sequence with S91C, D758A

[5] = biological target: chicken ubiquitin-specific protease 1, chUSP1^GG680,681AA double mutant (full-length control) (chicken) (UniProt F1NPR3); assay: as above
[6] = biological target: T4, chUSP1^H594A (on chUSP1^FL) (chicken) (UniProt F1NPR3); assay: as above
T4 sequence: T1 sequence with S91C, H594A

[7] = biological target: T5, chUSP1^CH91,594SA (on chUSP1^FL) (chicken) (UniProt F1NPR3); assay: as above
T5 sequence: T1 sequence with H594A

[8] = biological target: T6, chUSP1^C91A (on chUSP1^FL) (chicken) (UniProt F1NPR3); assay: as above
T6 sequence: T1 sequence with S91A

Measured: binding

chicken USP associated factor 1, untagged (from UniProt Q5F3K4 1-678)
binds: all assays above
